From patent US20220144905A1
No constants are given. Whether binding was seen depends on the method and setting. Some binding calls cover weakened binding; strength is not graded here.

By UniProt entry, the sequences of proteins in these tests, tags left out. Where a name states a change or a piece, a line headed by the entry shows the natural chain unless it says otherwise.
UniProt O14964: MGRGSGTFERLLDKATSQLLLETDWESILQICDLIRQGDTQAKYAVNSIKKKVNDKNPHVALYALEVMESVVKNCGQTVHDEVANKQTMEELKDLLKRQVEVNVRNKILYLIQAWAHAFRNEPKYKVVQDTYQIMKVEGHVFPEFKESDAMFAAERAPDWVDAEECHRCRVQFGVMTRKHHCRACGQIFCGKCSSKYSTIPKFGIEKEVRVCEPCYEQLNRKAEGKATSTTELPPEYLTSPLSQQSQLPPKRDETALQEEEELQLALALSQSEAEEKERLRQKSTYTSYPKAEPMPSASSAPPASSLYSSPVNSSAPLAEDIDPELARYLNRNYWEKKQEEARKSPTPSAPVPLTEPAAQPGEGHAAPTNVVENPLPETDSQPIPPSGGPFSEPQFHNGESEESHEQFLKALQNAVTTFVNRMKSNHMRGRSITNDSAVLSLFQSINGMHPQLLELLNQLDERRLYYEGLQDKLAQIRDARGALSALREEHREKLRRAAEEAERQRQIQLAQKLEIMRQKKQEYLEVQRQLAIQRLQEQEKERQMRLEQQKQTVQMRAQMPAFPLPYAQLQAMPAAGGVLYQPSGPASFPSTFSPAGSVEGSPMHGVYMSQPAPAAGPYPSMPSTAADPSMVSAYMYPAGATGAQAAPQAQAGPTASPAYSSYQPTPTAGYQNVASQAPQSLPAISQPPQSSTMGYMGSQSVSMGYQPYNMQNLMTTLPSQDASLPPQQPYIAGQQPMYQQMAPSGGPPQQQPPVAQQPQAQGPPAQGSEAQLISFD

B1: OP10-463 (peptide)
peptide: RRLYYEGLQD
B2: OP10-507 (peptide)
peptide: QIQLAQKLEI
B3: OP10-527 (peptide)
peptide: VQRQLAIQRL

Molecular target: Glutathione S-transferase (GST)-labeled HGS (Human) Recombinant Protein (Abnova) (human) (UniProt O14964)
Assay: SPR (ProteOn XPR36), GST-labeled protein immobilized on GLH chip, GST as blank

binding, binds:
B1
B2
B3
